Patent US7638552B1 (Sciele Pharma, Inc., priority 2003, dated 2009)

Columns and labels:
[1] = human, in vivo
[2] = clinical; settings: both, human, in vivo

In the case of C[N+]1(C)CCC(OC(=O)C(O)(c2ccccc2)C2CCCC2)C1.[Br-] (stereo not drawn) [glycopyrrolate, 3-[(cyclopentylhydroxyphenylacetyl)oxy]-1,1-dimethylpyrrolidinium bromide], the “Cmax Group A fasted” value ([1]; both, po, 2 mg) is reported as 0.1560 ng/mL, the “Tmax Group B fed” value ([1]; both, po, 2 mg) is reported as 1.500 h and the “Ln AUC0-24 hrs LS Mean Group A fasted” value [1] is reported as 0.417. The “Ln AUC0-24 hrs LS Mean Group B fed” value [1] was −0.9878, the “Ln AUC0-∞ LS Mean Group A fasted” value [1] was 0.4741 and the “Ln AUC0-∞ LS Mean Group B fed” value [1] was −0.7668. For the same compound, the “Ln Cmax LS Mean Group A fasted” value [1] was 1.267, the “Ln Cmax LS Mean Group B fed” value [1] was −2.604 and the AUC(0-t) ([2]; AUC0-24 hrs Group A fasted) was 1.74 ng·h/mL. It also gave an AUC(0-t) ([2]; AUC0-24 hrs Group B fed) of 0.383 ng·h/mL, an AUC(0-t) ([2]; AUC0-24 hrs LS Mean Group A fasted) of 1.84 ng·h/mL and an AUC(0-t) ([2]; AUC0-24 hrs LS Mean Group B fed) of 0.486 ng·h/mL. It also gave an AUC(0-inf) ([2]; AUC0-∞ Group A fasted) of 1.81 ng·h/mL, an AUC(0-inf) ([2]; AUC0-∞ Group B fed) of 0.459 ng·h/mL and an AUC(0-inf) ([2]; AUC0-∞ LS Mean Group A fasted) of 1.94 ng·h/mL. The AUC(0-inf) ([2]; AUC0-∞ LS Mean Group B fed) was 0.603 ng·h/mL, the Cmax ([2]; Cmax Group A fasted) was 0.318 ± 0.19 ng/mL and the Cmax ([2]; Cmax Group B fed) was 0.0838 ± 0.0813 ng/mL. It also gave a Cmax ([2]; Cmax LS Mean Group A fasted) of 0.337 ng/mL, a Cmax ([2]; Cmax LS Mean Group B fed) of 0.102 ng/mL and a Tmax ([2]; Tmax Group A fasted) of 3.1 h. For the same compound, the Tmax ([2]; Tmax Group B fed) was 2.6 h, the Tmax ([2]; Tmax LS Mean Group A fasted) was 3.15 h and the Tmax ([2]; Tmax LS Mean Group B fed) was 2.65 h.
